Values are relative to the signal before dosing, not to a vehicle control; the signal also falls without drug.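 Fibroblast labels name human fibroblasts: mostly primary ones from tissues such as uterus (C12385, HUF), lung (H6013), bone (Hs27A), adrenal (HADF) and skin (WS1), plus mammary HMF and breast cancer-associated Hs343T. The cancer cells are basal-like or mesenchymal-like triple-negative breast cancer lines. The paper calls a changed response a hit when it shifts by more than 3x the replicate standard deviation. The tissue of the other fibroblasts is not given here.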
Tested on: HCC1143
Test: relative JC-1 red fluorescence (viability) vs pre-drug, coculture with fibroblast (fraction); higher = more viable cancer cells
Method: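 JC-1 labelled TNBC cells cocultured 1:1 (1,500 cells each) with CellTrace Violet stained primary or stromal fibroblasts in 384-well plates in FluoroBrite medium, treated with one of 42 anticancer drugs at 0.1, 1, 10 or 100 uM. JC-1 red fluorescence (mitochondrial integrity in cancer cells only) was read by plate reader every 8 h for 72 h. Values are normalised to each well's pre-drug value. The stock of one drug was tenfold lower, so its dose labels may be too high.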

CC[C@]1(O)C[C@@H]2CN(CCc3c([nH]c4ccccc34)[C@@](C(=O)OC)(c3cc4c(cc3OC)N(C)[C@H]3[C@@](O)(C(=O)OC)[C@H](OC(C)=O)[C@]5(CC)C=CCN6CC[C@]43[C@@H]65)C2)C1 [Vinblastine]
relative JC-1 red fluorescence
Details | 8 h | 16 h | 24 h | 32 h | 40 h | 48 h | 56 h | 64 h | 72 h
0.1 µM, coculture fibroblast: C12385 | 0.825 | 0.767 | 0.718 | 0.669 | 0.61 | 0.583 | 0.554 | 0.518 | 0.509
0.1 µM, coculture fibroblast: H6013 | 0.797 | 0.788 | 0.768 | 0.773 | 0.739 | 0.738 | 0.725 | 0.717 | 0.687
0.1 µM, coculture fibroblast: H6019 | 0.816 | 0.769 | 0.742 | 0.7 | 0.668 | 0.658 | 0.623 | 0.596 | 0.578
0.1 µM, coculture fibroblast: H6076 | 0.8142 | 0.808 | 0.7769 | 0.7408 | 0.69112 | 0.681 | 0.664 | 0.642 | 0.6581
0.1 µM, coculture fibroblast: H6231 | 0.866 | 0.853 | 0.795 | 0.696 | 0.701 | 0.669 | 0.621 | 0.583 | 0.565
0.1 µM, coculture fibroblast: HADF | 0.749 | 0.703 | 0.667 | 0.654 | 0.582 | 0.57 | 0.548 | 0.536 | 0.50784
0.1 µM, coculture fibroblast: HCFa | 0.769 | 0.705 | 0.672 | 0.642 | 0.567 | 0.548 | 0.508 | 0.474 | 0.448
0.1 µM, coculture fibroblast: HCPF | 0.798 | 0.788 | 0.725 | 0.659 | 0.6393 | 0.6137 | 0.5815 | 0.552 | 0.548
0.1 µM, coculture fibroblast: HHSteC | 0.831 | 0.765 | 0.73 | 0.692 | 0.619 | 0.591 | 0.54 | 0.516 | 0.474
0.1 µM, coculture fibroblast: HMF | 0.827 | 0.8091 | 0.734 | 0.698 | 0.637 | 0.605 | 0.571 | 0.544 | 0.526
0.1 µM, coculture fibroblast: HPFa | 0.8862 | 0.807 | 0.781 | 0.687 | 0.639 | 0.61 | 0.56 | 0.532 | 0.515
0.1 µM, coculture fibroblast: HUF | 0.869 | 0.808 | 0.764 | 0.71 | 0.657 | 0.633 | 0.59 | 0.564 | 0.546
0.1 µM, coculture fibroblast: Hs5 | 0.861 | 0.866 | 0.829 | 0.81 | 0.748 | 0.707 | 0.674 | 0.658 | 0.656
0.1 µM, coculture fibroblast: Hs27A | 0.731 | 0.656 | 0.618 | 0.62 | 0.531 | 0.529 | 0.5 | 0.485 | 0.449
0.1 µM, coculture fibroblast: Hs343T | 0.818 | 0.84 | 0.778 | 0.71 | 0.6676 | 0.618 | 0.565 | 0.54 | 0.518
0.1 µM, coculture fibroblast: WS1 | 0.851 | 0.793 | 0.743 | 0.676 | 0.615 | 0.581 | 0.539 | 0.524 | 0.506
1 µM, coculture fibroblast: C12385 | 0.8399 | 0.759 | 0.717 | 0.663 | 0.607 | 0.592 | 0.57 | 0.548 | 0.547
1 µM, coculture fibroblast: H6013 | 0.755 | 0.716 | 0.685 | 0.687 | 0.641 | 0.639 | 0.627 | 0.626 | 0.604
1 µM, coculture fibroblast: H6019 | 0.866 | 0.838 | 0.781 | 0.719 | 0.675 | 0.662 | 0.618 | 0.59 | 0.566
1 µM, coculture fibroblast: H6076 | 0.7848 | 0.755 | 0.739 | 0.7228 | 0.6664 | 0.669 | 0.6424 | 0.629 | 0.655
1 µM, coculture fibroblast: H6231 | 0.837 | 0.844 | 0.784 | 0.659 | 0.677 | 0.64 | 0.598 | 0.564 | 0.546
1 µM, coculture fibroblast: HADF | 0.769 | 0.753 | 0.739 | 0.75 | 0.692 | 0.695 | 0.684 | 0.684 | 0.675
1 µM, coculture fibroblast: HCFa | 0.7594 | 0.701 | 0.653 | 0.629 | 0.5645 | 0.545 | 0.5128 | 0.4864 | 0.4662
1 µM, coculture fibroblast: HCPF | 0.815 | 0.8154 | 0.761 | 0.6655 | 0.679 | 0.652 | 0.615 | 0.586 | 0.586
1 µM, coculture fibroblast: HHSteC | 0.8177 | 0.768 | 0.734 | 0.703 | 0.651 | 0.639 | 0.608 | 0.581 | 0.532
1 µM, coculture fibroblast: HMF | 0.787 | 0.8025 | 0.7609 | 0.711 | 0.675 | 0.643 | 0.602 | 0.58 | 0.566
1 µM, coculture fibroblast: HPFa | 0.905 | 0.817 | 0.786 | 0.677 | 0.625 | 0.602 | 0.555 | 0.543 | 0.529
1 µM, coculture fibroblast: HUF | 0.8805 | 0.8144 | 0.778 | 0.715 | 0.671 | 0.646 | 0.6 | 0.575 | 0.554
1 µM, coculture fibroblast: Hs5 | 0.8445 | 0.857 | 0.816 | 0.775 | 0.718 | 0.6908 | 0.6594 | 0.65 | 0.647
1 µM, coculture fibroblast: Hs27A | 0.745 | 0.678 | 0.67 | 0.7 | 0.592 | 0.593 | 0.569 | 0.564 | 0.567
1 µM, coculture fibroblast: Hs343T | 0.7964 | 0.817 | 0.774 | 0.725 | 0.679 | 0.65 | 0.621 | 0.611 | 0.615
1 µM, coculture fibroblast: WS1 | 0.8121 | 0.7439 | 0.702 | 0.6344 | 0.567 | 0.546 | 0.522 | 0.507 | –
